Experimental data taken from PubChem BioAssay AID2685 (National Center for Advancing Translational Sciences (NCATS), 2010).
The list shows a part of the results. The main result of the screen is listed elsewhere. These columns were measured beside it and carry no call. The list favours compounds with an active or inconclusive main result. The note in brackets gives the kind of curve behind each potency; many fits are weak.

Assay: qHTS Assay for Lipid Storage Modulators in Drosophila S3 Cells;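 on cell number change: cells counted by Cell Tracker Red CMTPX staining in the red channel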
Settings: BODIPY lipid droplet fluorescence, 18-24 h; for cell number change: measured here: cell count max response, cells fed with added oleic acid
Outline: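 Drosophila S3 cells got compounds at several concentrations plus oleic acid (400 uM solution). Laser-scanning cytometry with 488 nm excitation read lipid droplets at 500-530 nm and cells at 575-640 nm. Percent activity was relative to 20 uM Triacsin C.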

[1] = measured here: lipid fluorescence (Fed channel) AC50, cells fed with added oleic acid
[2] = measured here: cell number channel AC50, cells fed with added oleic acid

| Structure (SMILES) | cell number change [%] | AC50 [1] | AC50 [2] |
| --- | --- | --- | --- |
| COc1ccc(CNC(=O)N2CCN(c3ccccc3)CC2)cc1 | 8.11 | 29.1 µM [falling, single point] | – |
| O=C(NC1CCCCC1)C(c1ccc(Cl)cc1)N(C(=O)c1cnccn1)c1ccc2c(c1)OCO2 (centres undefined) | – | – | 1.64 µM [rising, partial curve] |
| CCCc1cc2c(cc1NC(=O)c1ccccc1Cl)OCO2 | -1.56 | – | – |
| COc1ccc2nc(SCC(=O)NCc3ccccc3)[nH]c2c1 | -37.9 | – | 20.6 µM [falling, partial curve] |
| CCCN1CC(=O)N2C(c3ccccc3)c3[nH]c4ccccc4c3C[C@H]2C1=O (some centres undefined) | 29.1 | 29.1 µM [rising, single point] | – |
| COc1ccc(NC(=O)/C(C#N)=C\c2ccc(-c3cccc(C(=O)O)c3C)o2)cc1 | -7.37 | – | – |
| CCOC(=O)C1=C(C)N=C2SC(C)C(=O)N2C1c1ccc(OC(C)=O)c(OC)c1 (centres undefined) | 27.2 | – | – |
| Cc1nc2ccn(Cc3ccccc3)c(=O)c2cc1C(=O)N1CCN(c2ccc(F)cc2)CC1 | 8.96 | 5.8 µM [rising, full curve, poor fit] | – |
| c1ccc2sc(Sc3ncnc4sccc34)nc2c1 | -19.8 | 18.4 µM [falling, single point] | – |
| O=C(NCCCN1CCOCC1)c1cc2ccccc2oc1=O | 0.234 | 0.103 µM [falling, full curve, poor fit] | – |
| N#Cc1ccccc1Sc1ccccc1C(=O)NCC(c1ccco1)N1CCCCC1 (centres undefined) | -22.9 | 16.4 µM [falling, single point] | – |
| CCN(CC)CCN(Cc1cc2cc3c(cc2[nH]c1=O)OCO3)C(=S)NCCOC | 3.52 | 4.11 µM [rising, partial curve] | – |
| Cn1nnc2cc(C(=O)NC(C)(C)C)ccc21 | -45.4 | 0.58 µM [falling, single point] | 29.1 µM [falling, single point] |
| COc1ccc(NC2CCCN(C(=O)c3cccc(N(C)C)c3)C2)cc1 (centres undefined) | – | 0.651 µM [rising, full curve, poor fit] | – |
| Cc1cccc(OCC2=N/C(=C\N(C)C)C(=O)O2)c1 | -18.6 | 0.411 µM [rising, full curve, poor fit] | – |
| Cc1ccc(NC(=O)Cc2ncc(C(F)(F)F)cc2Cl)cc1Cl | -11.4 | – | 6.51 µM [falling, single point] |
| Cc1c(NC(=O)c2cnn3c(C(F)(F)F)cc(-c4ccco4)nc23)c(=O)n(-c2ccccc2)n1C | – | 6.51 µM [rising, single point] | – |
| COc1ccccc1N1CCN(C(=O)Cn2c(=O)[nH]c3ccsc3c2=O)CC1 | -16.5 | 0.92 µM [rising, full curve, poor fit] | – |
| CCN1CC(C)C(O)(c2ccccc2)CC1C (centres undefined) | -31.1 | 23.1 µM [falling, partial curve] | 0.206 µM [falling, full curve] |
| CCOC(=O)c1nnc(-c2ccc(C)cc2)nc1Sc1ccc(Cl)cc1 | -10.1 | 2.06 µM [falling, partial curve] | 0.146 µM [falling, full curve, poor fit] |

| Structure (SMILES) | cell number change [%] | AC50 [1] | AC50 [2] |
| --- | --- | --- | --- |
| CC1CCCC(NC(=O)Cn2cc([N+](=O)[O-])ccc2=O)C1C (centres undefined) | -13.3 | 6.51 µM [rising, single point] | – |
| O=S(=O)(c1ccc(N2CC=C(c3ccccc3)CC2)nc1)N1CCCC1 | -5.82 | 29.1 µM [rising, single point] | – |
| CCN(CC(=O)Nc1ccc(C(C)=O)cc1)CC(=O)Nc1cccc(OC)c1 | 117 | 18.4 µM [rising, single point] | – |
| CCN(c1ccccc1)S(=O)(=O)c1ccc(C(=O)NCCCn2ccnc2)cc1 | 49.6 | 1.64 µM [rising, full curve] | 0.82 µM [rising, full curve] |
| CN(NC(=O)CN1C(=O)c2ccccc2C1=O)C1=NS(=O)(=O)c2ccccc21 | -28.7 | 29.1 µM [falling, single point] | – |
| COc1ccc(-n2nc(C(=O)NCC(=O)N3CCCCC3)c3ccccc3c2=O)c(OC)c1 | -17.5 | 32.6 µM [falling, single point] | – |
| CCCc1nnc(SCC(=O)Nc2cccc(Cl)c2Cl)o1 | -14.5 | – | 5.8 µM [rising, partial curve] |
| CCOC(=O)N1CCN(C(=O)COC(=O)c2ccccc2NCCO)CC1 | – | – | 6.51 µM [rising, single point] |
| CCCOC(=O)c1ccc(NC(=O)c2cc(Cl)ccc2OC)cc1 | 3.95 | 0.58 µM [rising, full curve, poor fit] | 1.84 µM [rising, partial curve] |
| Cc1ccccc1C(=O)Nc1ccnn1C1CCN(Cc2cnn(C)c2)CC1 | 6.68 | – | – |
| O=C1COC(c2ccccc2)=CN1Cc1ccccc1 | -13.6 | 23.1 µM [falling, single point] | – |
| CS(=O)(=O)N1CCN(c2ccccc2NC(=O)c2ccco2)CC1 | -15 | 32.6 µM [falling, single point] | – |
| Cc1ccc2c(CSc3nncn3C)cc(=O)oc2c1C | – | – | 6.51 µM [rising, single point] |
| Cn1c(=O)c2c(ncn2CC(=O)N/N=C/C=C/c2ccccc2[N+](=O)[O-])n(C)c1=O | – | 25.9 µM [rising, single point] | – |
| COc1ccc(/C=N/Nc2cc(N(C)C)nc(N(C)C)n2)cc1 | -14.1 | 1.84 µM [falling, partial curve] | – |
| CCN1CCN(Cc2oc(CO)cc(=O)c2O)CC1 | -37.5 | 0.0651 µM [falling, full curve, poor fit] | – |
| NC(=O)c1ccc(Cn2c(C(=O)c3cc(Cl)c(N)c(Cl)c3)c3ccccc3[n+]2[O-])cc1 | -0.451 | – | – |
| O=C(CNS(=O)(=O)c1cccs1)NCc1ccccc1 | -6.03 | 1.84 µM [falling, partial curve] | 1.84 µM [falling, partial curve] |
| COc1ccc(OC)c(NC(=O)CSc2nc3ccccc3c3nc4ccccc4n23)c1 | -44.4 | 6.51 µM [falling, partial curve, poor fit] | 1.84 µM [falling, full curve] |
| CCOC(=O)C(NC(C)=O)C(=O)Nc1c(C)cccc1C (centres undefined) | 17.5 | – | – |

In the list so far, 2 have a nitro group on carbon:

| Structure (SMILES) | cell number change [%] | AC50 [1] | AC50 [2] |
| --- | --- | --- | --- |
| CC1CCCC(NC(=O)Cn2cc([N+](=O)[O-])ccc2=O)C1C (centres undefined) | -13.3 | 6.51 µM [rising, single point] | – |
| Cn1c(=O)c2c(ncn2CC(=O)N/N=C/C=C/c2ccccc2[N+](=O)[O-])n(C)c1=O | – | 25.9 µM [rising, single point] | – |

The list goes on:

| Structure (SMILES) | cell number change [%] | AC50 [1] | AC50 [2] |
| --- | --- | --- | --- |
| CC(=O)c1ccc(NC(=S)NC(=O)/C=C/c2ccccc2)cc1 | -3.85 | 0.461 µM [rising, full curve, poor fit] | – |
| CC(OC(=O)c1ccccn1)C(=O)Nc1ccc2c(c1)OCCO2 (centres undefined) | -17.2 | 29.1 µM [rising, single point] | – |
| CC1(c2ccc3ccccc3c2)NC(=O)N(CC(=O)N2CCN(Cc3ccc(C#N)cc3)CC2)C1=O (centres undefined) | – | – | 0.164 µM [rising, full curve, poor fit] |
| CC(C)(C)C(=O)Oc1cccc(Nc2ncnc3ccccc23)c1 | -33.1 | 23.1 µM [falling, partial curve] | 1.64 µM [falling, partial curve, poor fit] |
| COc1ccc(-n2nc(C(=O)NCC(=O)NC3CCCCC3)c3ccccc3c2=O)c(OC)c1 | 18 | 6.51 µM [falling, single point] | – |
| O=C(O)Cc1sc(Nc2ccccc2)nc1-c1ccc(Cl)cc1 | -7.33 | – | 0.0058 µM [falling, full curve, poor fit] |
| COc1ccc(C)cc1NC(=O)NNC(=O)c1cc2ccccc2cc1O | 6.42 | – | – |
| C=C1CSc2nc3ccccc3c(=O)n21 | -15.9 | 14.6 µM [rising, partial curve] | – |
| CCCCc1ccc(NC(=S)Nc2ccc(Cl)c(S(=O)(=O)N(C)C)c2)cc1 | 33.3 | 36.6 µM [falling, partial curve, poor fit] | 14.6 µM [rising, single point] |
| CN(c1ccc(OCc2ccc([N+](=O)[O-])cc2)cc1)S(=O)(=O)c1ccccc1 | -21.9 | 6.51 µM [rising, single point] | – |
| CN(C)c1ccc(/C=C(\NC(=O)c2ccccc2)C(=O)N/N=C/c2ccc(C(=O)O)cc2)cc1 | 9.46 | 11.6 µM [rising, single point] | – |
| CCOc1ccc2nc(COC(=O)c3ccncc3)c(C(=O)c3ccccc3)[n+]([O-])c2c1 | -46.9 | 29.1 µM [falling, single point] | – |
| COc1cccc(-n2nc(-c3ccnn3-c3ccc(C)cc3)c(=O)n(C)c2=O)c1 | 133 | – | 23.1 µM [rising, partial curve, poor fit] |
| COc1ccc(N2CCN(C(=O)COC(=O)c3cnccn3)CC2)cc1 | -29.4 | 5.8 µM [falling, full curve] | – |
| Cc1c(C#N)c(O)[nH]c(=O)c1N=Nc1ccc(S(N)(=O)=O)cc1 | – | 0.517 µM [rising, partial curve, poor fit] | – |
| O=C(Nc1ccncc1)Nc1ccc(Br)cc1Cl | 18.8 | – | – |
| Cc1nc(C(=O)Nc2ccc(Cl)cc2)sc1C1(C)CC(c2ccccc2)=NO1 (centres undefined) | 20.7 | 18.4 µM [rising, partial curve] | – |
| CC(C)N1CC(O)=C(c2nc3ccccc3[nH]2)C1=N | -2.65 | 0.461 µM [rising, full curve, poor fit] | – |
| CCc1nnc(NS(=O)(=O)c2ccc(NC(=O)c3ccccc3OC)cc2)s1 | -7.91 | 29.1 µM [rising, single point] | – |
| Cc1ccc(-n2c(-c3ccco3)nc3nc4ccccc4nc32)cc1F | -70.5 | 23.1 µM [falling, partial curve] | 23.1 µM [falling, partial curve] |

Quoted from the listing.
Entry of CN(C)c1ccc(/C=C(\NC(=O)c2ccccc2)C(=O)N/N=C/c2ccc(C(=O)O)cc2)cc1 under cell number change [%]: 9.46
Entry of O=C(O)Cc1sc(Nc2ccccc2)nc1-c1ccc(Cl)cc1 under cell number change [%]: -7.33
